In publication PMC2843739:
Results are given in words; binding and its absence hold for the method and conditions named. Some results given as binding are weak or reduced against the parent protein; the word gives no strength.

The chains behind the UniProt entries cited, without tags or fusion partners. Residues count along the entry.
UniProt P08113, residues 22-802: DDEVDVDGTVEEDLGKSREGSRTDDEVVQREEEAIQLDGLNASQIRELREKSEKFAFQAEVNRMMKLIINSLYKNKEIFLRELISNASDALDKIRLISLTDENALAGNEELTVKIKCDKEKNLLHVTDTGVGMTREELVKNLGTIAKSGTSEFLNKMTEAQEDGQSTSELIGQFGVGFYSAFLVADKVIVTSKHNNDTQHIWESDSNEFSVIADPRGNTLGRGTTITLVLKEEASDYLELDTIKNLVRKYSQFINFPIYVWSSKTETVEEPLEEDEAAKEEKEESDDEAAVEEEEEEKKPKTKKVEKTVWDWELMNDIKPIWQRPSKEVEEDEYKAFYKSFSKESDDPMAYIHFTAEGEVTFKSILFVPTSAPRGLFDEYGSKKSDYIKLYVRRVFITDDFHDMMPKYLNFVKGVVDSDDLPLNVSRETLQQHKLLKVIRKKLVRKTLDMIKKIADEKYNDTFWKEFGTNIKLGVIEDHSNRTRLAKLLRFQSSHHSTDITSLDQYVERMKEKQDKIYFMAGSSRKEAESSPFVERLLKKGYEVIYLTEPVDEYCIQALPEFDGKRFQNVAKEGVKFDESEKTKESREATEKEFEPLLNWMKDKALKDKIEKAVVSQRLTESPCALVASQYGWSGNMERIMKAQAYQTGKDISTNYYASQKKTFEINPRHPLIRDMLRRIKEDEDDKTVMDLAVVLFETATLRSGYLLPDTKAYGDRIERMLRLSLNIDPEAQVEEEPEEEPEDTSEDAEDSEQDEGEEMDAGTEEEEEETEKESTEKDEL

Molecular target: T1, recombinant AIMP1 (UniProt Q12904)
T1 sequence: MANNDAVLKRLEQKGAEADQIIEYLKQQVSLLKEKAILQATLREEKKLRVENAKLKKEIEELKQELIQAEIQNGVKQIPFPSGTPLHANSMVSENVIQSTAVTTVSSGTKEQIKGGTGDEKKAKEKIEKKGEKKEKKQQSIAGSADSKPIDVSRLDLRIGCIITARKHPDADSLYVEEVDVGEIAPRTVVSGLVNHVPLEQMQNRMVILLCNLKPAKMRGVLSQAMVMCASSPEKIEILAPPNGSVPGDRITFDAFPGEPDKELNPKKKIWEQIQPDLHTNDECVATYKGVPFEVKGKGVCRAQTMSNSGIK
Assay: ELISA; AIMP1 coated at 500ng/well in PBS (pH 7.4), blocked with 1% BSA; 10ng/well biotin-conjugated gp96 in Tris buffer (25 mM Tris, 10 mM NaCl, 0.4% Triton X-100), with test compounds or DMSO; detected with HRP-conjugated streptavidin, absorbance at 450 nm; both purified

Substance: biotin-conjugated murine gp96 (from UniProt P08113 22-802)
- binding: binds
